The test can be described thus: qHTS Assay for Lipid Storage Modulators in Drosophila S3 Cells.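 As to cell number change: cells counted by Cell Tracker Red CMTPX staining in the red channel.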 As to conditions: BODIPY lipid droplet fluorescence, 18-24 h; for cell number change: measured here: cell count max response, cells fed with added oleic acid. In short, it runs like this:
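Laser-scanning cytometry quantifies lipid droplet accumulation (500–530 nm total intensity; droplet/cell object ratio) in oleic acid-fed (400 uM added) Drosophila S3 cells treated with a concentration series. 20 uM Triacsin C defined 100% inhibition.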
A general note: qHTS replaces the single test concentration by a dilution series.

[1] abbreviates: measured here: lipid fluorescence (Fed channel) AC50, cells fed with added oleic acid.
Where [2] appears, read: measured here: cell number channel AC50, cells fed with added oleic acid.

Some of the results follow. Further columns of the screen follow, without active or inactive calls. Compounds called inactive in the main read-out are mostly missing here. The note in brackets gives the kind of curve behind each potency; many fits are weak.

In the case of `Cc1ccc(N2CCN(C(=O)NC3CCCCC3)CC2)c(C)c1`, the cell number change is -13.2%. The AC50 (as a rule, the concentration giving half of the maximal activity seen) under setting [1] was 25.9 µM [falling, single point].

Take `CC(C)(C#CCN1CCCCC1)OCCOC(c1ccccc1)c1ccccc1`: the cell number change was -15.4%. Besides, the AC50 under setting [2] is 6.51 µM [rising, partial curve]. Moreover, the AC50 under setting [1] was 6.51 µM [rising, partial curve].

`CCN1CCc2c(OCC(=O)Nc3ccccc3)cccc2C1=O`: the cell number change is -11.4%.

As for `COc1ccc(N2C3=[N+](CCCC3)CC2(C)O)cc1` (stereo not given), the cell number change was -1.8%. The AC50 under setting [1] is 23.1 µM [falling, partial curve].

In the case of `COc1ccc2nc3c(c(-c4ccccc4)c2c1)CCC3`, the cell number change was 15.6%. For the same compound, the AC50 under setting [1] is 2.06 µM [rising, partial curve].

`O=C(N/N=C\c1ccccc1OCc1ccccc1)c1ccco1`: the cell number change was -49.6%. Further, the AC50 under setting [2] is 8.2 µM [falling, partial curve].

Take `Cc1cc(OCCCCOc2ccc(C#N)cc2)ccc1[N+](=O)[O-]`: the cell number change is -15%. The AC50 under setting [1] is 0.731 µM [rising, partial curve, poor fit].

In the case of `CCOc1ccc(C(=O)NCc2cccnc2)cc1[N+](=O)[O-]`, the cell number change amounted to 9.5%. Moreover, under setting [1], the concentration at half-maximal activity (AC50) is 31.6 µM [rising, single point].

On to `CN(C)CC(=O)N1c2ccccc2Sc2ccc(Cl)cc21`, for which the cell number change was 22.8%. In addition, under setting [1], the AC50 was 0.0411 µM [rising, full curve, poor fit].

As to `CCN1CCN(C(c2cccs2)C(C)NS(=O)(=O)c2ccc(C)cc2)CC1` (stereo not given), the cell number change is 12.5%. In addition, the AC50 under setting [1] is 0.517 µM [falling, single point].

`COc1ccccc1NC(=O)c1ccccc1SC`: the half-maximal activity concentration (AC50) runs as follows: under setting [2], 2.91 µM [rising, partial curve]; under setting [1], 2.91 µM [rising, partial curve].

As for `CC(=O)Cn1ncc(N2CCOCC2)c(Cl)c1=O`, the cell number change worked out at 12.6%. Further, under setting [1], the half-maximal activity concentration (AC50) is 5.8 µM [rising, single point].

As to `NC(=O)C(=O)NN=C1CCC(c2ccccc2)CC1` (stereo not given), the cell number change amounted to 5.57%. Further, the concentration at half-maximal activity (AC50) under setting [1] is 16.4 µM [falling, single point].

With `Cc1cccc(N2CCN(C(=S)NCCc3ccccc3)CC2)c1C`, the cell number change amounted to 43%. Under setting [2], the half-maximal activity concentration (AC50) was 18.4 µM [rising, partial curve]. Further, the concentration at half-maximal activity (AC50) under setting [1] was 4.61 µM [rising, partial curve].

Turning to `Cc1cc(C(=O)N2CC(C)CC(C)C2)c(C)o1` (stereo not given), the cell number change is -17.4%. In addition, the AC50 under setting [1] was 6.51 µM [falling, single point].

With `CCCC1=C(C(=O)OCC)C(c2sccc2C)n2ncnc2N1` (stereo not given), the cell number change worked out at 13.2%. The concentration at half-maximal activity (AC50) under setting [1] was 2.31 µM [falling, single point].

With `CCN(CC)CCCNC(=S)N1CCC(c2nc3ccccc3[nH]2)CC1`, the cell number change is 15.8%. The half-maximal activity concentration (AC50) under setting [1] is 14.6 µM [rising, partial curve].

`COC(=O)c1sccc1NS(=O)(=O)c1ccc(F)cc1F`: the cell number change was found to be 16%. The half-maximal activity concentration (AC50) under setting [1] is 11.6 µM [rising, partial curve, poor fit].

For `O=[N+]([O-])c1cccnc1N1CCCCC1`, the cell number change is 12.1%. For the same compound, the AC50 under setting [1] was 8.2 µM [rising, partial curve].

As for `C=CCn1c(SCC(=O)c2ccc(OC)cc2)nnc1-c1ccc2c(c1)OCO2`, the cell number change is 6.71%. Besides, the AC50 under setting [1] was 1.16 µM [rising, partial curve].

In the case of `Cc1ncn(C23CC4CC(CC(O)(C4)C2)C3)n1`, the cell number change is -2.33%. In addition, the concentration at half-maximal activity (AC50) under setting [1] is 0.0184 µM [falling, full curve, poor fit].

For `O=C(/C=C1\SC(=O)N(CC(=O)Nc2ccc(F)cc2)C1=O)Nc1ccc(Cl)cc1`, the cell number change is -1%. Also, the AC50 under setting [2] is 0.00411 µM [rising, full curve, poor fit]. Also, under setting [1], the AC50 is 0.231 µM [falling, full curve, poor fit].

As to `Nn1c(Cc2cccc3ccccc23)nnc1SCC(=O)NCC1CCCO1` (stereo not given), the cell number change was 3.82%. Further, the AC50 under setting [1] was 29.1 µM [falling, single point].

As to `Cc1cccc(N2C(=O)CC(c3ccc(F)cc3)C3=C2COC3=O)c1` (stereo not given), the AC50 under setting [2] was 0.082 µM [falling, full curve, poor fit].

Regarding `Cn1nnnc1SCC(=O)N(C1CCCCC1)C1CCCCC1`, the cell number change is -19.7%. For the same compound, the AC50 under setting [1] is 29.1 µM [rising, single point].

`O=C(c1cccc(F)c1)N1CCc2ccccc2C1`: the cell number change is -5.39%. Besides, under setting [1], the concentration at half-maximal activity (AC50) was 0.184 µM [falling, full curve, poor fit].

As to `O=C(Nc1ccccc1C(F)(F)F)C1CCN(C(=O)Cc2ccccc2)CC1`, the cell number change was determined as 37.5%. Under setting [1], the concentration at half-maximal activity (AC50) is 0.58 µM [rising, full curve, poor fit].

On to `O=C(CSc1nc2c(c(=O)n1-c1ccc(Cl)cc1)SCC2)NCC1CCCO1` (stereo not given), for which the cell number change is -20.1%. Under setting [1], the AC50 was 23.1 µM [rising, single point].

In the case of `CCn1cc(C(=O)NCc2ccc3c(c2)OCO3)c(=O)c2cc(F)c(N3CCN(C)CC3)cc21`, the cell number change stood at 1.39%. Moreover, under setting [2], the half-maximal activity concentration (AC50) is 0.366 µM [falling, full curve].

Regarding `COc1cc(C=O)cc(OC)c1OS(=O)(=O)c1ccc(NC(C)=O)cc1`, the cell number change was 5.67%. Further, the half-maximal activity concentration (AC50) under setting [2] is 6.51 µM [rising, single point].

With `CCc1ccc2nc3sc(C(=O)N4CCc5ccccc54)c(N)c3cc2c1`, the cell number change is 14.4%. Also, the half-maximal activity concentration (AC50) under setting [1] is 2.06 µM [rising, full curve].

In the case of `O=C(Nc1ccc(F)cc1Cl)C1=COCCO1`, the cell number change is 1.61%.

Turning to `CSc1ccc(Cn2nnc(C(=O)Nc3ccc(C)c(C)c3)c2N)cc1`, the cell number change was 17.5%. Further, under setting [1], the concentration at half-maximal activity (AC50) is 0.00411 µM [rising, full curve, poor fit].

Take `CCc1nnc(NC(=O)CCNC(=O)c2ccccc2Cl)s1`: the cell number change is -39.3%.

As for `On1nnc2cc(C(F)(F)F)ccc21`, the concentration at half-maximal activity (AC50) under setting [2] is 5.17 µM [falling, single point].

Consider `CNS(=O)(=O)c1ccc(NC(=S)Nc2ccc3c(c2)OCO3)cc1`, for which the cell number change is 22.2%.

Consider `Clc1ccc(-c2nc(C3CCCCC3)no2)cc1`, for which the cell number change is -54.2%. The half-maximal activity concentration (AC50) under setting [2] was 29.1 µM [falling, single point]. In addition, the AC50 under setting [1] was 29.1 µM [falling, single point].

Take `Cc1c([N+](=O)[O-])c(C(=O)Sc2ccc(Br)cc2)nn1C`: the cell number change was -3.7%.

With `COCCCN1C(=O)C(=O)/C(=C(/O)c2ccc(OC)cc2)C1c1cccc(OC)c1` (stereo not given), the cell number change is -141%. In addition, the AC50 under setting [2] was 4.61 µM [falling, partial curve].

Regarding `O=C(NCc1ccc2c(c1)OCO2)C(=O)Nc1ccccc1`, the cell number change worked out at 27.1%.

With `CC1Cc2ccccc2N1CC(=O)NC(=O)NCc1ccccc1` (stereo not given), the cell number change was -11.6%. For the same compound, the AC50 under setting [2] is 0.00461 µM [falling, full curve, poor fit].

For `CCOC(=O)C(NC(=O)Cc1ccccc1)(Nc1cc(C)on1)C(F)(F)F` (stereo not given), the cell number change was -18.4%. In addition, under setting [1], the AC50 is 11.6 µM [falling, partial curve].

In the case of `CCCn1c(SCC(=O)N2CCN(c3ccc(OC)cc3)CC2)nc2c1c(=O)n(C)c(=O)n2C`, the cell number change is -15.6%.

In the case of `COc1ccc(CCNC(=O)CC(Cc2ccccc2)C(=O)O)cc1OC` (stereo not given), the cell number change is 60.4%. Further, the AC50 under setting [2] was 29.1 µM [rising, single point].

For the compound `COc1ccc(C=O)cc1CN1CCCN(Cc2ccccc2F)S1(=O)=O`, the cell number change was 54.9%. Also, under setting [2], the AC50 was 11.6 µM [rising, partial curve]. The half-maximal activity concentration (AC50) under setting [1] is 6.51 µM [rising, single point].

With `Cc1nn(Cc2ccc(Cl)cc2Cl)c(C)c1NC(=O)CCl`, the cell number change is -32.9%. For the same compound, the AC50 under setting [2] was 11.6 µM [falling, partial curve]. Also, the concentration at half-maximal activity (AC50) under setting [1] was 16.4 µM [falling, partial curve].

Regarding `CCOC(=O)/C(C#N)=C1/SC(CC)C(=O)N1c1ccc(Br)cc1` (stereo not given), the cell number change came to 1.84%. Further, the concentration at half-maximal activity (AC50) under setting [2] is 1.46 µM [rising, partial curve, poor fit].

`COc1ccc(N(C(=O)Cc2cccs2)C2C=CS(=O)(=O)C2)cc1` (stereo not given): the cell number change was found to be 18.8%. Further, the AC50 under setting [1] is 0.411 µM [falling, single point].

With `Cc1ccc(S(=O)(=O)N2CC(O)C2)cc1`, the cell number change was determined as 24%. Further, the concentration at half-maximal activity (AC50) under setting [1] is 0.411 µM [falling, single point].

As to `Cc1cc(C(=O)OCC(=O)Nc2cccc(S(=O)(=O)N(C)C)c2)c(C)o1`, the cell number change came to 28.7%. Also, the AC50 under setting [1] was 29.1 µM [rising, single point].

With `CCOc1ccc(N(CC(=O)NCC2CCCO2)C(=O)CCC(=O)Nc2nccs2)cc1` (stereo not given), the cell number change was 13.5%. Under setting [1], the AC50 was 9.2 µM [rising, single point].

On to `CCOc1ccc(C(=O)NCc2ccc3c(c2)OCO3)cc1`, for which the cell number change worked out at 10.4%. The AC50 under setting [1] was 3.66 µM [rising, full curve].

As for `O=C(CN(c1ccccn1)S(=O)(=O)c1ccc(F)cc1)Nc1ccc(F)cc1F`, the cell number change is -14%.

On to `Cc1ccc(C)c(S(=O)(=O)N2CCN(CC(=O)NC(=O)NCc3ccccc3)CC2)c1`, for which the cell number change amounted to 29.3%. Also, the AC50 under setting [1] was 0.184 µM [rising, full curve, poor fit].

On to `Cc1ccc(S(=O)(=O)Nc2cc(C)nn2-c2ccccc2)cc1`, for which the cell number change is -0.26%. Also, under setting [1], the AC50 is 0.164 µM [rising, full curve, poor fit].

Consider `COc1cc(NC(=O)COc2cc(O)c3c(c2)OC(C)(C)CC3=O)cc(OC)c1`, for which the cell number change was determined as 1.29%. Moreover, the AC50 under setting [1] was 29.1 µM [falling, single point].

Turning to `CC(=O)c1c(C)[nH]c(C(=O)CN2C(=O)NC(C)(C)C2=O)c1C`, the cell number change is -11.3%. Besides, under setting [1], the AC50 is 0.00461 µM [rising, full curve, poor fit].

For the compound `Cc1cc(C(=O)Nc2ccccc2N2CCCCC2)no1`, the cell number change is -3.03%. Further, the AC50 under setting [1] is 6.51 µM [falling, single point].

Turning to `CCOc1ccc(NC(=O)CN(C)C(=O)c2cccnc2Sc2ccc(Cl)cc2)cc1OCC`, the cell number change was -11.1%.

As to `Cc1ccc(S(=O)(=O)NCC(=O)Nc2ccc3c(c2)OCCO3)cc1`, the cell number change turned out to be 19.1%. The AC50 under setting [1] is 29.1 µM [rising, partial curve, poor fit].

`Cc1cc(CNC(=O)C2CCC(=O)N(CCc3cccc(F)c3)C2)on1` (stereo not given): the cell number change was -11.9%.

As to `CCOC(=O)[C@@H]1[C@H]2COc3ccc(Br)cc3[C@@H]2N2C(=O)N(c3ccccc3)C(=O)[C@]12C`, the cell number change amounted to 3.29%. Moreover, the AC50 under setting [1] was 29.1 µM [rising, single point].

For the compound `COc1ccc(CNC(=O)CCc2nnc3ccc(N4CCC5(CC4)OCCO5)nn23)cc1`, the cell number change was -18.4%. The AC50 under setting [1] is 6.51 µM [falling, single point].

These data come from PubChem BioAssay AID2685 (National Center for Advancing Translational Sciences (NCATS), 2010).
